Patent US20230190614A1, “SELF-TANNING COMPOSITIONS CONTAINING AN ALKYL SULFONATE AND METHODS THEREOF” (Kao Corporation, priority 2020, published 2023)

System: keratin (stratum corneum)
Test: Determination of relative α-helix/β-sheet index ratio (FT-IR of stratum corneum exposed to 2% aqueous solution)
Set-up: species or system human
Conditions: 2% (w/w %) aqueous solution of the salt, relative to water; FIG. 9A

SMILES	relative α-helix/β-sheet index ratio
CCCCCCCCS(=O)(=O)[O-].[Na+] [SOS, sodium 1-octanesulfonate]	about 0.97
CCCCCCCCCCCCOS(=O)(=O)[O-].[Na+] [SLS, sodium lauryl sulfate]	about 0.86
